In PMC11926245, “Structural recognition and stabilization of tyrosine hydroxylase by the J-domain protein DNAJC12” (Nature Communications, 2025):
These are yes or no findings as the source states them, for the method shown.

By UniProt entry, the sequences of proteins in these tests, tags left out. Where a name states a change or a piece, a line headed by the entry shows the natural chain unless it says otherwise. Chains listed by the source or under a name are the forms on record and can include a tag or linker.
Tyrosine hydroxylase, wild-type (hTH1) (P07101, form named): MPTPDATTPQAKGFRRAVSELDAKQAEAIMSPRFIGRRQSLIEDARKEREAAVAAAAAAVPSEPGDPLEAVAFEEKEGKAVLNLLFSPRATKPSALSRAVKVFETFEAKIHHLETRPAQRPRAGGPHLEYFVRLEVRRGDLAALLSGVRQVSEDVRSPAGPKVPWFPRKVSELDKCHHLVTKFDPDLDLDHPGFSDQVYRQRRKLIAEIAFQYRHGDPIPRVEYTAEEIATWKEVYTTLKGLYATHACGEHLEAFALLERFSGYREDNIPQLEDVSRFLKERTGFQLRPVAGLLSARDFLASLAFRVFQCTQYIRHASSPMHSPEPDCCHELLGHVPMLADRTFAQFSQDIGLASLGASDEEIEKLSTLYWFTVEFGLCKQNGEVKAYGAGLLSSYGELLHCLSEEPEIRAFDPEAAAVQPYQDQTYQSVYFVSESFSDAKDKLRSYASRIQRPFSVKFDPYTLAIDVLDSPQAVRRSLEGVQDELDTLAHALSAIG
UniProt P25685: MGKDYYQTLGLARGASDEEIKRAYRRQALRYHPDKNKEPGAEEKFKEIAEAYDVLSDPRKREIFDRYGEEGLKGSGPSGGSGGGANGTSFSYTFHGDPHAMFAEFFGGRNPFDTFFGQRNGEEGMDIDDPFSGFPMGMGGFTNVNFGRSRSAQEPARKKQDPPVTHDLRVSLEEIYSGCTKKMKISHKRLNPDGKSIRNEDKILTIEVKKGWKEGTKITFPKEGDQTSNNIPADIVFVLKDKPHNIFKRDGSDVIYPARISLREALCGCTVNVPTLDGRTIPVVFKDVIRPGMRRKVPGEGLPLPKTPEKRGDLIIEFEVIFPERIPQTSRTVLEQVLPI
UniProt O60884: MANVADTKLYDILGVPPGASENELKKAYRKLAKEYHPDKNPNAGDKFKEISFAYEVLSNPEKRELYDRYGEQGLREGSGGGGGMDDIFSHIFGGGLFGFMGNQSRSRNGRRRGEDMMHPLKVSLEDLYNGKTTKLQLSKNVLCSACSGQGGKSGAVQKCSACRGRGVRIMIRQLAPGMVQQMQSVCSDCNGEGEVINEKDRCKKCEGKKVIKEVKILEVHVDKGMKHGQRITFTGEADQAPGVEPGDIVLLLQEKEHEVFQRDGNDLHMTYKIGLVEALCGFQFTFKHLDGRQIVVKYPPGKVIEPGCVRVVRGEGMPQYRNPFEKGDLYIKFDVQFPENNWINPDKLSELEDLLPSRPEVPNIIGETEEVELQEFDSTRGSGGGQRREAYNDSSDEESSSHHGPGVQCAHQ

Target: Tyrosine hydroxylase, wild-type (hTH1) (human) (UniProt P07101)
Assay: BLI; biotinylated TH or TH variant immobilised on streptavidin sensors; DNAJC12 or variant 0.01-4 μM in solution; PBS, 0.02% Tween-20, 0.5 mg/mL BSA, 25 °C; responses fitted to a one-site hyperbola; both purified

Substance	binding
DNAJB1 (from UniProt P25685 1-340)	no binding
DNAJA2 (from UniProt O60884 1-412)	no binding
